Measurements taken from patent US11832662B2, “Methods and devices for preventing viral transmission” (priority 2020, dated 2023).
At least one compound was matched to its structure with a doubt left.

What was measured:
[1] = tested on: HUVEC cells; experiment: EF-induced reorientation of endothelial cells (orientation index Oi); type: cell-based, human; conditions: drug present 1 hour before and during EF exposure
[2] = tested on: HUVEC cells; experiment: EF-induced elongation of endothelial cells (long:short axis ratio); type: cell-based, human; conditions: versus control
Experimental: HUVEC cells were seeded in a trough formed by two parallel (1 cm apart) strips of glass coverslip (No. 1, length of 22 mm) fixed to the base of the dish with silicone grease. Scratch lines were made perpendicular to the long axis of the chamber with a fine sterile needle and used as reference marks for directed cell migration. Cells were incubated for 24-48 hours (37° C., 5% CO2) before a roof coverslip was applied and sealed with silicone grease. The final dimensions of the chamber, through which current was passed, were 22×10×0.2 mm. […] Field strengths were measured directly at the beginning of, the end of and during each experiment. […]
A series of images was taken with an image analyser immediately before EF exposure and at 4, 8 and 24 hours of EF exposure. Cell orientation was quantified as an orientation index (Oi), which is defined as Oi=cos 2(α), where a is the angle formed by the long axis of a cell with a line drawn perpendicular to the field lines. […] The significance of this two-dimensional orientation distribution against randomness was calculated using Rayleigh's distribution. A long:short axis ratio was calculated for assessment of elongation.
HUVEC cells elongated dramatically in an EF. […] We quantified the elongation of the cells using a long:short axis ratio. […]

## O=c1cc(N2CCOCC2)oc2c(-c3ccccc3)cccc12 [LY294002]
[1]
  orientation response of cells in an EF: significantly decreased
[2]
  long:short axis ratio / elongation response in EF-treated cells: significantly decreased
